Values of other authors, collected in patent US5104814A, “Assay kit and methods for neuroleptic drugs” (Schering Corporation, priority 1990, dated 1992).

System: D-1 receptor
Conditions: reported, Life Sciences 23, 551 (1978); cited from earlier work

| Substance | non-specific binding as share of total binding |
| --- | --- |
| ^3 H-flupentixol | ~74% |
| ^3 H-piflutixol | about 66% |
